This passage reports binding results from publication PMC11229335, “The translocation activity of Rad54 reduces crossover outcomes during homologous recombination”.

Results are given in words; binding and its absence hold for the method and conditions named. Some binding calls cover weakened binding; strength is not graded here.

Experiment in all cases: SEC; size exclusion chromatography of purified Rad54 proteins; conditions not shown (Supplementary Figure S5A-C); both purified
Assay [1] concerns the target T1, Rad54 (wild type, S. cerevisiae) (S. cerevisiae), P32863.
T1 chain: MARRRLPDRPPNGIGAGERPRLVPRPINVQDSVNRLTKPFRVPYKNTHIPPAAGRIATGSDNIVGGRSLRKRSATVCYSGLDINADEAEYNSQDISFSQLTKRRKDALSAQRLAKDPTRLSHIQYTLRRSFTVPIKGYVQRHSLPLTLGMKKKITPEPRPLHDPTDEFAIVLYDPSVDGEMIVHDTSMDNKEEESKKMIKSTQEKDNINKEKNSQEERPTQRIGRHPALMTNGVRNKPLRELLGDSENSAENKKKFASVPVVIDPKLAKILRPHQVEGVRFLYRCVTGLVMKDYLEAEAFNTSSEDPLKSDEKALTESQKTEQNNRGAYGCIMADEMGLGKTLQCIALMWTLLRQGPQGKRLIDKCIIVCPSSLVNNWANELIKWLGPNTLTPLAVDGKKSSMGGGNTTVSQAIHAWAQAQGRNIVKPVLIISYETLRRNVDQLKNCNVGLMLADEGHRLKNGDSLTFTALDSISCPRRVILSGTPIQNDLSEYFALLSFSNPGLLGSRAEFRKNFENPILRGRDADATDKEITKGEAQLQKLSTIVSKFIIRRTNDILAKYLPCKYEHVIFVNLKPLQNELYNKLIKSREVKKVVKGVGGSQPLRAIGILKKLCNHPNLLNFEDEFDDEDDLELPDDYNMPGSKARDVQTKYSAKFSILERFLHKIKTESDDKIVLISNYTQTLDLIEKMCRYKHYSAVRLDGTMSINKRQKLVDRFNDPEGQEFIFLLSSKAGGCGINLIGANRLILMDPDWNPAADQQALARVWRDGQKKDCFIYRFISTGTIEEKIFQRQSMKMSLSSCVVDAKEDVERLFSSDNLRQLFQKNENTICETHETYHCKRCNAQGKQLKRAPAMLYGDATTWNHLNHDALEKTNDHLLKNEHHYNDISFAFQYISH
The settings on record: remark: other sources report otherwise.

In assay [2] the target is Rad54R272A (S. cerevisiae) (S. cerevisiae) (UniProt P32863).
The target in assay [3] is Rad54R272Q (S. cerevisiae) (S. cerevisiae) (UniProt P32863).

B1: Rad54 (wild type, S. cerevisiae), P32863 1-898 (enzyme)
chain: MARRRLPDRPPNGIGAGERPRLVPRPINVQDSVNRLTKPFRVPYKNTHIPPAAGRIATGSDNIVGGRSLRKRSATVCYSGLDINADEAEYNSQDISFSQLTKRRKDALSAQRLAKDPTRLSHIQYTLRRSFTVPIKGYVQRHSLPLTLGMKKKITPEPRPLHDPTDEFAIVLYDPSVDGEMIVHDTSMDNKEEESKKMIKSTQEKDNINKEKNSQEERPTQRIGRHPALMTNGVRNKPLRELLGDSENSAENKKKFASVPVVIDPKLAKILRPHQVEGVRFLYRCVTGLVMKDYLEAEAFNTSSEDPLKSDEKALTESQKTEQNNRGAYGCIMADEMGLGKTLQCIALMWTLLRQGPQGKRLIDKCIIVCPSSLVNNWANELIKWLGPNTLTPLAVDGKKSSMGGGNTTVSQAIHAWAQAQGRNIVKPVLIISYETLRRNVDQLKNCNVGLMLADEGHRLKNGDSLTFTALDSISCPRRVILSGTPIQNDLSEYFALLSFSNPGLLGSRAEFRKNFENPILRGRDADATDKEITKGEAQLQKLSTIVSKFIIRRTNDILAKYLPCKYEHVIFVNLKPLQNELYNKLIKSREVKKVVKGVGGSQPLRAIGILKKLCNHPNLLNFEDEFDDEDDLELPDDYNMPGSKARDVQTKYSAKFSILERFLHKIKTESDDKIVLISNYTQTLDLIEKMCRYKHYSAVRLDGTMSINKRQKLVDRFNDPEGQEFIFLLSSKAGGCGINLIGANRLILMDPDWNPAADQQALARVWRDGQKKDCFIYRFISTGTIEEKIFQRQSMKMSLSSCVVDAKEDVERLFSSDNLRQLFQKNENTICETHETYHCKRCNAQGKQLKRAPAMLYGDATTWNHLNHDALEKTNDHLLKNEHHYNDISFAFQYISH
Regarding B1, in assay [1], the binding result is reported as “binds”.

B2: Rad54R272A (S. cerevisiae) (enzyme, UniProt P32863 1-898)
chain: MARRRLPDRPPNGIGAGERPRLVPRPINVQDSVNRLTKPFRVPYKNTHIPPAAGRIATGSDNIVGGRSLRKRSATVCYSGLDINADEAEYNSQDISFSQLTKRRKDALSAQRLAKDPTRLSHIQYTLRRSFTVPIKGYVQRHSLPLTLGMKKKITPEPRPLHDPTDEFAIVLYDPSVDGEMIVHDTSMDNKEEESKKMIKSTQEKDNINKEKNSQEERPTQRIGRHPALMTNGVRNKPLRELLGDSENSAENKKKFASVPVVIDPKLAKILAPHQVEGVRFLYRCVTGLVMKDYLEAEAFNTSSEDPLKSDEKALTESQKTEQNNRGAYGCIMADEMGLGKTLQCIALMWTLLRQGPQGKRLIDKCIIVCPSSLVNNWANELIKWLGPNTLTPLAVDGKKSSMGGGNTTVSQAIHAWAQAQGRNIVKPVLIISYETLRRNVDQLKNCNVGLMLADEGHRLKNGDSLTFTALDSISCPRRVILSGTPIQNDLSEYFALLSFSNPGLLGSRAEFRKNFENPILRGRDADATDKEITKGEAQLQKLSTIVSKFIIRRTNDILAKYLPCKYEHVIFVNLKPLQNELYNKLIKSREVKKVVKGVGGSQPLRAIGILKKLCNHPNLLNFEDEFDDEDDLELPDDYNMPGSKARDVQTKYSAKFSILERFLHKIKTESDDKIVLISNYTQTLDLIEKMCRYKHYSAVRLDGTMSINKRQKLVDRFNDPEGQEFIFLLSSKAGGCGINLIGANRLILMDPDWNPAADQQALARVWRDGQKKDCFIYRFISTGTIEEKIFQRQSMKMSLSSCVVDAKEDVERLFSSDNLRQLFQKNENTICETHETYHCKRCNAQGKQLKRAPAMLYGDATTWNHLNHDALEKTNDHLLKNEHHYNDISFAFQYISH
Consider B2, for which the binding result in assay [2] was “binds”.

B3: Rad54R272Q (S. cerevisiae) (enzyme, UniProt P32863 1-898)
chain: MARRRLPDRPPNGIGAGERPRLVPRPINVQDSVNRLTKPFRVPYKNTHIPPAAGRIATGSDNIVGGRSLRKRSATVCYSGLDINADEAEYNSQDISFSQLTKRRKDALSAQRLAKDPTRLSHIQYTLRRSFTVPIKGYVQRHSLPLTLGMKKKITPEPRPLHDPTDEFAIVLYDPSVDGEMIVHDTSMDNKEEESKKMIKSTQEKDNINKEKNSQEERPTQRIGRHPALMTNGVRNKPLRELLGDSENSAENKKKFASVPVVIDPKLAKILQPHQVEGVRFLYRCVTGLVMKDYLEAEAFNTSSEDPLKSDEKALTESQKTEQNNRGAYGCIMADEMGLGKTLQCIALMWTLLRQGPQGKRLIDKCIIVCPSSLVNNWANELIKWLGPNTLTPLAVDGKKSSMGGGNTTVSQAIHAWAQAQGRNIVKPVLIISYETLRRNVDQLKNCNVGLMLADEGHRLKNGDSLTFTALDSISCPRRVILSGTPIQNDLSEYFALLSFSNPGLLGSRAEFRKNFENPILRGRDADATDKEITKGEAQLQKLSTIVSKFIIRRTNDILAKYLPCKYEHVIFVNLKPLQNELYNKLIKSREVKKVVKGVGGSQPLRAIGILKKLCNHPNLLNFEDEFDDEDDLELPDDYNMPGSKARDVQTKYSAKFSILERFLHKIKTESDDKIVLISNYTQTLDLIEKMCRYKHYSAVRLDGTMSINKRQKLVDRFNDPEGQEFIFLLSSKAGGCGINLIGANRLILMDPDWNPAADQQALARVWRDGQKKDCFIYRFISTGTIEEKIFQRQSMKMSLSSCVVDAKEDVERLFSSDNLRQLFQKNENTICETHETYHCKRCNAQGKQLKRAPAMLYGDATTWNHLNHDALEKTNDHLLKNEHHYNDISFAFQYISH
With B3, the binding entry in assay [3] is “binds”.
